Laboratory results from patent US20150182667A1, “Composition with Biofilm Dispersal Agents” (Vanderbilt University, priority 2012, published 2015).
For part of these data: At least one compound was matched to its structure with a doubt left. Some of these results come from one statement about several compounds together.

How the values were obtained:
human osteoblasts = test: CellTiter-Fluor cell viability assay; format: cell-based; conditions: up to 50 mM, 24 h
Method: (§1) To observe the cellular viability of PUR/D-AA composites, human dermal fibroblasts and human osteoblasts (PromoCell) were maintained in Dulbecco's Modified Eagle Medium (DMEM; Invitrogen) supplemented with 10% Fetal Bovine Serum (FBS) and 1× penicillin/streptomycin. Human epidermal keratinocytes (HEK-001; ATCC CRL-2404) were maintained in Keratinocyte-serum free media (GIBCO) supplemented with 5 ng/mL human recombinant EGF and 2 mM L-glutamine. All cell lines were cultured at 37° C. in 5% CO2. Prior to each assay cells were seeded at 100% confluence in black-clear bottom 96-well plates. After 24 h, cells were exposed to media containing D-AA, 50 mM-1 nM, and incubated for 24-48 h at 37° C. in 5% CO2. Following treatment, cells were washed, resuspended in 100 μL of sterile saline and viability was determined using the CellTiter-Flour Cell Viability Assay (Promega) following the manufacturer's instructions. […]
(§2) Human dermal fibroblasts and osteoblasts (PromoCell, Heidelberg, Germany) were maintained in Dulbecco's Modified Eagle Medium (DMEM; Invitrogen, Grand Island, N.Y.) supplemented with 10% Fetal Bovine Serum (FBS) and 1× penicillin/streptomycin at 37° C. in 5% CO2. […] Following treatment, cells were washed, re-suspended in 100 μL of sterile saline, and assessed for viability using the CellTiter-Fluor Cell Viability Assay (Promega, Madison, Wis.) following the manufacturer's instructions. […]

human dermal fibroblasts = test: CellTiter-Fluor cell viability assay; format: cell-based; conditions: up to 50 mM, 24 h
Method: as §1, §2

[1] = tested on: biofilm derived S. aureus clinical strains (UAMS-1, 103-700); test: Biofilm susceptibility, Calgary Biofilm device (MBEC plates): MBIC and viable CFU; format: cell-based, Staphylococcus aureus; conditions: both strains, bacterial CFUs within biofilms
Method: Biofilm susceptibility to antimicrobial agents in the presence and absence of D-AA was determined using the Calgary Biofilm device. Briefly, biofilms from overnight cultures were established as above on individual pegs of the minimum biofilm eradication concentration (MBEC) plates (Innovotech, Canada) with agitation for 48 h at 37° C. Following incubation, the lid with pegs was removed from the incubation plate, washed by re-suspending pegs into plate with wells containing 200 μl of 1×PBS, then placed into a 96-well challenge plate containing pre-diluted antibiotics with or without an […] for an additional 24 h at 37° C. Following challenge plates were washed, and the attached viable cells on PEGs within the biofilm were determined by plating serial dilutions onto blood agar plates (Remel). Corresponding minimal biofilm inhibitory concentration (MBIC) was also determined by measuring the optical density in individual wells of the challenge plate at 600 nm. The lowest concentration of antibiotic for which an optical density of <0.100 was recorded as the MBIC. For each antibiotic, the MBIC was determined in the presence or absence of a mixture of D-AA (D-Phenylalanine, D-Methionine, and D-Tryptophan) at an equimolar concentration of 5 mM. Three independent experiments were performed for each of these assays, with a minimum of 3 replicates.

`N[C@H](Cc1ccccc1)C(=O)O` [D-Phe, D-phenylalanine] was tested, and the “viability (percentage of viable cells relative to untreated controls)” value (human osteoblasts) was over 70% and the “viability (percentage of viable cells relative to untreated controls)” value (human dermal fibroblasts) was over 70%.
`CCC[C@@H]1C[C@@H](C(=O)N[C@@H]([C@H]2O[C@H](SC)[C@H](O)[C@@H](O)[C@H]2O)[C@H](C)Cl)N(C)C1` [CLI, Clindamycin] was tested, and the “effect of the antimicrobial against biofilms when combined with the D-AA mixture” value [1] was “enhanced the effect”.
